Measured values published in patent publication US20240067683A1, “USE OF MCM8-CGAS-STING-IFN-I SIGNAL PATHWAY AS DISEASE TARGET” (Guangzhou Women and Children's Medical Center, priority 2020, published 2024).
Results are given in words; binding and its absence hold for the method and conditions named. In cells and extracts the contact can be indirect. Some results given as binding are weak or reduced against the parent protein; the word gives no strength.

Protein sequences, listed by entry. Tags and fused reporters are not part of them. Lines headed by an entry give the natural chain unless they say otherwise; changes in a name come on top.
UniProt P19474: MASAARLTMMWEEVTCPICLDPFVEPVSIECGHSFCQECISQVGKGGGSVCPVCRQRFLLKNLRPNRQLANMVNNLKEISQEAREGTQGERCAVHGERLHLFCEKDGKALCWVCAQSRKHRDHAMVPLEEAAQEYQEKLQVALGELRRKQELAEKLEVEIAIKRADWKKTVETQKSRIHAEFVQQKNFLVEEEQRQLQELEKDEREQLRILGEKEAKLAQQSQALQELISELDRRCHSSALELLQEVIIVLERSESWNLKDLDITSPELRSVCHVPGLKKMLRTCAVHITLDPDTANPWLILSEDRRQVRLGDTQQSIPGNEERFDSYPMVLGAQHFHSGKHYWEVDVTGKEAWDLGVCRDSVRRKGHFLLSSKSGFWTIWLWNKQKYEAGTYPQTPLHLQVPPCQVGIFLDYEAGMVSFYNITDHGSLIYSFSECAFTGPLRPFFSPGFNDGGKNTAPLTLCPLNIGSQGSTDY
UniProt Q9UJA3: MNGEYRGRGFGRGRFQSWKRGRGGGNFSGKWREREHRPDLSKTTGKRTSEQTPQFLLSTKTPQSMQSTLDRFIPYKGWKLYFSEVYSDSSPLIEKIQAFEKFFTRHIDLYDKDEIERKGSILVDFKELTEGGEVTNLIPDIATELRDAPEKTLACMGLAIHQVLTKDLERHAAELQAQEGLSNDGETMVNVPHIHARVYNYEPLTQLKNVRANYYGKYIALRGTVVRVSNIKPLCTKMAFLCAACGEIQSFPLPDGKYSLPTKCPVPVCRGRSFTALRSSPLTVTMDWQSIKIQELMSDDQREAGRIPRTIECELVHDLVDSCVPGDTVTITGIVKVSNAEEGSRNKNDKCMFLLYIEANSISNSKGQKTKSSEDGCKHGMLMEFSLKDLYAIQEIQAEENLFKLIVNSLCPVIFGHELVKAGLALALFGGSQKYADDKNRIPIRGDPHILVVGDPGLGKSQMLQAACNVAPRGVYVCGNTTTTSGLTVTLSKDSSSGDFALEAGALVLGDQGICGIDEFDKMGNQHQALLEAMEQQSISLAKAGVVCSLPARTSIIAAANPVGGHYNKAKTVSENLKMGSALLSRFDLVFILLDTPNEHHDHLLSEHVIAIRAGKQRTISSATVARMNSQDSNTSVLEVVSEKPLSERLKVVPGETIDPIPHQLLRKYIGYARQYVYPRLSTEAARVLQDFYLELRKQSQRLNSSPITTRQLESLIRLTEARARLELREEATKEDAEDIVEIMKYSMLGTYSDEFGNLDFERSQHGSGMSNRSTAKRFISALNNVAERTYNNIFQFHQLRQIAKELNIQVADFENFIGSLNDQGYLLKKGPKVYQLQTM

Experiments:
[1] = biological target: Flag-TRIM21 (human) (UniProt P19474); test: co-immunoprecipitation in HeLa cells (FIG. 12 Panel d)
[2] = biological target: Flag-TRIM21 (human) (UniProt P19474); test: co-immunoprecipitation from HeLa cells transfected with Flag-TRIM21 and HA-MCM8

With HA-MCM8 (from UniProt Q9UJA3 1-840) the binding [1] was “binds” and the binding [2] was “binds”.
